# Reference: the supplement of paper PMC11006884
# Amino acid sequences for entries named in this document (tags omitted). A change or cut given only in a name is not applied to a line headed by its entry.
# UniProt Q9UN37: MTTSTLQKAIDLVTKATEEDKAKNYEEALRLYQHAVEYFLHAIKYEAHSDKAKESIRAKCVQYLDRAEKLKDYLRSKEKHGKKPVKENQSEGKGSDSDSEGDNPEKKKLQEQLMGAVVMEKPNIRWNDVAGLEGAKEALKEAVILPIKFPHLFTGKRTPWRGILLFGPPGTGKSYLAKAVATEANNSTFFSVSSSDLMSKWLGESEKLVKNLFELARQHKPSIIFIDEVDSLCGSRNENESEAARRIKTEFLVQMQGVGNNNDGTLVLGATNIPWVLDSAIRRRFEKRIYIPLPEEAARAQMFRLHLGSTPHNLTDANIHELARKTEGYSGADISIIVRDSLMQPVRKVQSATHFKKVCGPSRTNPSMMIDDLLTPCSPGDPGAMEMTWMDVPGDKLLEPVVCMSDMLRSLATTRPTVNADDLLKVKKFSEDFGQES
# UniProt Q9Y2J2, whole entry: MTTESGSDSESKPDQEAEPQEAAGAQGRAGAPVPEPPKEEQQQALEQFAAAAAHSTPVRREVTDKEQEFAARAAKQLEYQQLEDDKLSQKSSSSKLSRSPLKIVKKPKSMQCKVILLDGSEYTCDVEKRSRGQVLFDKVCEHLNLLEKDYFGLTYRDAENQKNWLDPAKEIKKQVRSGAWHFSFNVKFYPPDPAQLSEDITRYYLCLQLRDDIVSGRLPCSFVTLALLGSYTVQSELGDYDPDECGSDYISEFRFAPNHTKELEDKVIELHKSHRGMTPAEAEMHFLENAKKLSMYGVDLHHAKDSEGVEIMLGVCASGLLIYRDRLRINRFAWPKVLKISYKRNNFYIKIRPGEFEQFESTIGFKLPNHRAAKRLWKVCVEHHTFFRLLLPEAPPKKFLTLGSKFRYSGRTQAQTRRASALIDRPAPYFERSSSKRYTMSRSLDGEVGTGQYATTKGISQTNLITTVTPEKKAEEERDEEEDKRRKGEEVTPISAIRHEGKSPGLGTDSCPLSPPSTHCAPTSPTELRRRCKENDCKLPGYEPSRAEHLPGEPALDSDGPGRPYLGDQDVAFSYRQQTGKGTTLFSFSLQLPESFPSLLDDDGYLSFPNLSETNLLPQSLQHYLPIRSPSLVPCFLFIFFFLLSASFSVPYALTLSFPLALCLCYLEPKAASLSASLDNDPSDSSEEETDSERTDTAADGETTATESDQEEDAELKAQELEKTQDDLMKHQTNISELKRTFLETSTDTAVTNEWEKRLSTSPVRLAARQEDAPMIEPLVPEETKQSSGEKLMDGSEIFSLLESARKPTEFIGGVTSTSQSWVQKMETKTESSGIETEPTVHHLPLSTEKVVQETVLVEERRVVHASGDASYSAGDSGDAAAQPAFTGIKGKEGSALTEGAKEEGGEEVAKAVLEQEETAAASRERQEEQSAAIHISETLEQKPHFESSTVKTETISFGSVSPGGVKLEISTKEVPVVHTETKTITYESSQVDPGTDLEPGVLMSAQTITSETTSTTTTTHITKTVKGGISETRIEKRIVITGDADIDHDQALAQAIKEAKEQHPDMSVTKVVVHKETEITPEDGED
# UniProt Q9ULI3: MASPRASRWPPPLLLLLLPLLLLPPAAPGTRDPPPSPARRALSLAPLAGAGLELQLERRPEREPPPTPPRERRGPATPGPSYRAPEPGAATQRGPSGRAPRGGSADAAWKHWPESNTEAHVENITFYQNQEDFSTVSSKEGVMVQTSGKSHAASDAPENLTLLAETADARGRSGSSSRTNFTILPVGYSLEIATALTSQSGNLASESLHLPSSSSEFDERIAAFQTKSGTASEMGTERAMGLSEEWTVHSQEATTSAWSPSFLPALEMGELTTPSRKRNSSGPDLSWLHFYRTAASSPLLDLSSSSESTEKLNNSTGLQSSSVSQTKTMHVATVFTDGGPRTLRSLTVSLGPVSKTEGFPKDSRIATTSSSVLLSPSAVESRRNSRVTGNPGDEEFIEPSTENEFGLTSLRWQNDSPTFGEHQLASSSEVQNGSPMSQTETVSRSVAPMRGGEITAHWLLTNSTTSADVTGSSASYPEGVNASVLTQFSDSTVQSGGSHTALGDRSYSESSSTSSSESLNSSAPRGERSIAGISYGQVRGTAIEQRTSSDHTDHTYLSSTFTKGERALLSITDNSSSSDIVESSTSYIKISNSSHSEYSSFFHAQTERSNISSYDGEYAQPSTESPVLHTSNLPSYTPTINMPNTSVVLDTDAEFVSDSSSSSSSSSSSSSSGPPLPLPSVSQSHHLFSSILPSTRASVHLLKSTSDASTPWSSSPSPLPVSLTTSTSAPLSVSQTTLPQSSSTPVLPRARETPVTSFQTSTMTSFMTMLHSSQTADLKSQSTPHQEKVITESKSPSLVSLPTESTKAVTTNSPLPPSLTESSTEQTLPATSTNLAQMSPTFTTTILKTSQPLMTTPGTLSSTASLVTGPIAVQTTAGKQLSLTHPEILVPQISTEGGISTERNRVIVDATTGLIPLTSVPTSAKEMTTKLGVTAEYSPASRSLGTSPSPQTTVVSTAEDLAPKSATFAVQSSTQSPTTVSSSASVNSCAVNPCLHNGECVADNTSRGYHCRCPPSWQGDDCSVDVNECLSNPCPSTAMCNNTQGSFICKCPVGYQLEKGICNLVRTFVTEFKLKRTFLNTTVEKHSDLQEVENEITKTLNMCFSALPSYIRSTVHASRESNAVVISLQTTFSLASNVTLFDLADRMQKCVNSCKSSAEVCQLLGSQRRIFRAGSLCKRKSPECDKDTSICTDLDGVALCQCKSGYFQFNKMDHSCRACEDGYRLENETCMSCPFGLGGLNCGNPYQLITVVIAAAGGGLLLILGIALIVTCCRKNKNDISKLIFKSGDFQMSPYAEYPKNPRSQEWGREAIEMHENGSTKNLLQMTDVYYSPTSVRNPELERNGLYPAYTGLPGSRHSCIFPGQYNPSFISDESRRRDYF
# UniProt Q9UNE7: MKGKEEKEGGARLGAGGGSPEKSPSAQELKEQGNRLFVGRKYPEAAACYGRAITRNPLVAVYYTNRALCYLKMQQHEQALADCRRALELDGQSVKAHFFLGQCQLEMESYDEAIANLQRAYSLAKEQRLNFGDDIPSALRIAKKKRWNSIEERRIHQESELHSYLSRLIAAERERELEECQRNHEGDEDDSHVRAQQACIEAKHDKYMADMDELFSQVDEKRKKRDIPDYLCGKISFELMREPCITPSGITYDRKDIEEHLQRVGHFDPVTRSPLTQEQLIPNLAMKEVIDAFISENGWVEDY
# UniProt Q9UL03, whole entry, looked up: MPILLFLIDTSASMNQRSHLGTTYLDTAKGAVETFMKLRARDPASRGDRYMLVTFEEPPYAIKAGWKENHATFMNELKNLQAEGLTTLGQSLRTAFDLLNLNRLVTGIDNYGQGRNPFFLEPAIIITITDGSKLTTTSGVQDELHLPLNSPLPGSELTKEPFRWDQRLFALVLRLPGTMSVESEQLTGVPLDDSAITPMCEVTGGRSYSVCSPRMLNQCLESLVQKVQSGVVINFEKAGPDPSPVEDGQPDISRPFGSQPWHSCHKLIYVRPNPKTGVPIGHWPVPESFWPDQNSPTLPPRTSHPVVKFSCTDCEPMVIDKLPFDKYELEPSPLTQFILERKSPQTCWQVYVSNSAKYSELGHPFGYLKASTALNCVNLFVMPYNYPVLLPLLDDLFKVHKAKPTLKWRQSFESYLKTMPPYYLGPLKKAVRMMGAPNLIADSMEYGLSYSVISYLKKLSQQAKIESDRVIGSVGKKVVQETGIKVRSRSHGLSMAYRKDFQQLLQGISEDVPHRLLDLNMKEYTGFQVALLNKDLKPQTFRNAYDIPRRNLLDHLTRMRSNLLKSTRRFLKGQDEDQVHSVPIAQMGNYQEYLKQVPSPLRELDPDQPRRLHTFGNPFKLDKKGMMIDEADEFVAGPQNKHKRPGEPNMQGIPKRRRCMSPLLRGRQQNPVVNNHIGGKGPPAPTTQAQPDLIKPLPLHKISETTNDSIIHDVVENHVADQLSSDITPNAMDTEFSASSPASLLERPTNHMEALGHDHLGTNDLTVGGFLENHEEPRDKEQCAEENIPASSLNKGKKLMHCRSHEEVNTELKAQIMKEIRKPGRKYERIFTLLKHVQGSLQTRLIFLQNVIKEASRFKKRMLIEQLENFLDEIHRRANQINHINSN
# UniProt Q9UKN8: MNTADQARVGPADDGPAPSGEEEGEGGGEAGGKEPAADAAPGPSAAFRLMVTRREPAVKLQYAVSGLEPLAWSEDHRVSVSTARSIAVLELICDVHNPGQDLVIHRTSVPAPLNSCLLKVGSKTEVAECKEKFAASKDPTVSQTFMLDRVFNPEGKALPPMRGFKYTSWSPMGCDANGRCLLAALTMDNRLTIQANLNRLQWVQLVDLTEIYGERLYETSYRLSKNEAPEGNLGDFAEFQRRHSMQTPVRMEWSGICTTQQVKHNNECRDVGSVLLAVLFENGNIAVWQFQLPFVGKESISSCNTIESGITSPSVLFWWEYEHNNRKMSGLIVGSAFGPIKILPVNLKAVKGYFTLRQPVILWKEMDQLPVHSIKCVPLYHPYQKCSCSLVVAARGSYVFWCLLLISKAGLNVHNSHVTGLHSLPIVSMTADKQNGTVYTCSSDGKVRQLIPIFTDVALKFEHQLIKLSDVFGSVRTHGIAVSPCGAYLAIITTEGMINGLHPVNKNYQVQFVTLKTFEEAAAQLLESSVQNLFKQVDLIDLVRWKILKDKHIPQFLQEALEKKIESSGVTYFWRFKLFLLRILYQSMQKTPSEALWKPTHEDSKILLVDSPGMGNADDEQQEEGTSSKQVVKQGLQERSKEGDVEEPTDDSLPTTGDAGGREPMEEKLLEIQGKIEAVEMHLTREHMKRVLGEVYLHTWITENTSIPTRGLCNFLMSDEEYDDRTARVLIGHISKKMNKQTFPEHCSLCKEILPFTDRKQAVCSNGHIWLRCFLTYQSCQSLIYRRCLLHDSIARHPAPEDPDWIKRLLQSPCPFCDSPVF
# UniProt Q9UK61: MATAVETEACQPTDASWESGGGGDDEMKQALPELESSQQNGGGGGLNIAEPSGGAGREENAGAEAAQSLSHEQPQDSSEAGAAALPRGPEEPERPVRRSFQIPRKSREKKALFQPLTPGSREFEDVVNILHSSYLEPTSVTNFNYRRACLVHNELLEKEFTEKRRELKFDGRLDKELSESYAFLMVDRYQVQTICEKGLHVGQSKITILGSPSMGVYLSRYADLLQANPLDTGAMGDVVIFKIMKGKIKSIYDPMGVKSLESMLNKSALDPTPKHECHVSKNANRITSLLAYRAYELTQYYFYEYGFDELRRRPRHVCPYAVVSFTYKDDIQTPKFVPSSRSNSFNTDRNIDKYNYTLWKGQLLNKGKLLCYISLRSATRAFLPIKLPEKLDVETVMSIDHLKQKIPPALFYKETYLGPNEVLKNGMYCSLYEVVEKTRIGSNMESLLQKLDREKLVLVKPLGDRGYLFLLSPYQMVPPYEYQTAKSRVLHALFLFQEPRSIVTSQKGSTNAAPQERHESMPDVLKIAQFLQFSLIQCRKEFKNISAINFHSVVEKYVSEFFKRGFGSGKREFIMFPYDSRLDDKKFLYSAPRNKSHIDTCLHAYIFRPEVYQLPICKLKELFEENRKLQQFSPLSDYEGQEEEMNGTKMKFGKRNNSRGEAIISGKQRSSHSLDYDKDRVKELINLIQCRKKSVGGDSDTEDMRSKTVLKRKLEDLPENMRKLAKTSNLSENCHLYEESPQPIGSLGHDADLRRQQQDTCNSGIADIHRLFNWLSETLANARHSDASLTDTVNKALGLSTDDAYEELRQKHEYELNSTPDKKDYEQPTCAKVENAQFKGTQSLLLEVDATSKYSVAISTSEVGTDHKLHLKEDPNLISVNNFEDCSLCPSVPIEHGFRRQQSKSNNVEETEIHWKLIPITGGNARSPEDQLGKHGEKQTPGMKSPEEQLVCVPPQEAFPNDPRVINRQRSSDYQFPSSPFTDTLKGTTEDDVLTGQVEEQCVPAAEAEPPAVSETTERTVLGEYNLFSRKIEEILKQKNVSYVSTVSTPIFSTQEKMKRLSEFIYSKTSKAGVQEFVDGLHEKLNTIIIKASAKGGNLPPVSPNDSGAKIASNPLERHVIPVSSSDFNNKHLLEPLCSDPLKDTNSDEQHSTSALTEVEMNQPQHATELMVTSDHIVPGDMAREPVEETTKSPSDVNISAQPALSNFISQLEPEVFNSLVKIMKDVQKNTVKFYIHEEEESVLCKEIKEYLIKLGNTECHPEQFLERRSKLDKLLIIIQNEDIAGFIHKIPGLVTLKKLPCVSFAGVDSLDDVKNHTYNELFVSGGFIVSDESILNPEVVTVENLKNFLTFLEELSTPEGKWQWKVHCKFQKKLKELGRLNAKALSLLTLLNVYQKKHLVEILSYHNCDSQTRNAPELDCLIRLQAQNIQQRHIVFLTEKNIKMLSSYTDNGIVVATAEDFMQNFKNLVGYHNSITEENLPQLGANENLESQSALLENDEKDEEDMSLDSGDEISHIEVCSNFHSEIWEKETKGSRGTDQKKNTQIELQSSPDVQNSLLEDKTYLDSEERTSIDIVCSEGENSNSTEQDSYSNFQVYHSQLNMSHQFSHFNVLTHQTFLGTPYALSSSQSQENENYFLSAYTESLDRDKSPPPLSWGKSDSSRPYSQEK
# This list holds what a sample rich in targets with a hit left over. The data scatter; read single values as rough. Only a part is listed here, and it is no random draw.
# Compound: COC(=O)/C=C/c1ccccc1 [methyl cinnamate]
# Experiment: log2 ratio of iodoacetamide-alkyne labeling of the cysteine site, DMSO over compound (competition); higher = stronger covalent engagement of the cysteine by the compound, active = 1 or more
# Details: 500 µM; treatment time 1 h; system: HEK293T cell lysate
# Summary of the method: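 Reporter intensities give each cysteine's log2 competition ratio as the mean of control channels over the mean of compound channels. The samples were HEK293T lysate (2 mg/mL) given vehicle or electrophile (500 µM, 1 h, ambient temperature), then iodoacetamide alkyne (1 h), followed by click coupling to sCIP-TMT reagents, pooling, trypsin digestion overnight at 37 °C, streptavidin enrichment, acid elution, Orbitrap Eclipse LC-MS/MS with FAIMS and FragPipe quantification. Duplicate channels and three replicates were run, and cysteines quantified in only one replicate were discarded.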
row,Target,log2 ratio of iodoacetamide-alkyne labeling
1,UniProt Q9UK39_C302,inactive: 0.162
2,PRPF19 C16 (UniProt Q9UMS4),inactive: 0.167
3,NISCH C436 (UniProt Q9Y2I1),inactive: -0.14
4,MRPL11 C50 (UniProt Q9Y3B7),inactive: 0.342
5,WNK2 C2062 (UniProt Q9Y3S1),inactive: 0.312
6,EXOSC1 C15 (UniProt Q9Y3B2),inactive: 0.21
7,VPS4A C359 (UniProt Q9UN37),inactive: 0.194
8,RUVBL1 C141 (UniProt Q9Y265),inactive: 0.477
9,HECTD1 C1368 (UniProt Q9ULT8),inactive: 0.515
10,DDX41 C568 (UniProt Q9UJV9),inactive: 0.0681
11,COG5 C64 (UniProt Q9UP83),inactive: 0.278
12,UniProt Q9UHD8_C248,inactive: 0.373
13,UniProt Q9UHJ3_C142,inactive: 0.0143
14,EPB41L3 C140 (UniProt Q9Y2J2),inactive: -0.168
15,PLAA C605 (UniProt Q9Y263),inactive: 0.0356
16,USP24 C172 (UniProt Q9UPU5),inactive: 0.0685
17,SAP30BP C127 (UniProt Q9UHR5),inactive: 0.667
18,EXOSC1 C40 (UniProt Q9Y3B2),inactive: 0.0537
19,VPS51 C269 (UniProt Q9UID3),inactive: 0.671

# Given as tab-separated lines: part of the list above
row	Target	log2 ratio of iodoacetamide-alkyne labeling
5	WNK2 C2062 (UniProt Q9Y3S1)	inactive: 0.312
16	USP24 C172 (UniProt Q9UPU5)	inactive: 0.0685

# Further records:

row,Target,log2 ratio of iodoacetamide-alkyne labeling
1,GPN3 C281 (UniProt Q9UHW5),inactive: 0.185
2,HEG1 C1360 (UniProt Q9ULI3),inactive: 0.237
3,LIMCH1 C669 (UniProt Q9UPQ0),inactive: 0.0959
4,STUB1 C103 (UniProt Q9UNE7),inactive: -0.0172
5,TPX2 C364 (UniProt Q9ULW0),inactive: 0.521
6,UniProt Q9UI30_C100,inactive: -0.0185
7,CPSF3 C655 (UniProt Q9UKF6),inactive: 0.25
8,PRPF19 C114 (UniProt Q9UMS4),inactive: 0.103
9,INTS6 C219 (UniProt Q9UL03),inactive: 0.0184
10,GTF3C4 C129 (UniProt Q9UKN8),inactive: 0.463
11,TTF2 C785 (UniProt Q9UNY4),inactive: -0.119
12,MED23 C1069 (UniProt Q9ULK4),inactive: 0.152
13,UniProt Q9UK61_C429,inactive: 0.0982
14,TRIM33 C150 (UniProt Q9UPN9),inactive: 0.309
15,UniProt Q9UPN4_C218,inactive: 0.0397
16,UniProt Q9Y312_C156,inactive: 0.345
17,ZMYND8 C1062 (UniProt Q9ULU4),inactive: 0.143
18,ANAPC7 C131 (UniProt Q9UJX3),inactive: -0.039
